Where no end group is shown, it is not given here. [ ]: non-standard residue; d: D form. Dab = NCC[C@H](N)C(=O)O
Assay: peptide made by a vendor (Fmoc solid-phase peptide synthesis; rink amide resin; HOBT and DIC)
Conditions: whole synthesis, run 1

In the case of [Dab]I[Dab][dF]L[Dab][dV]LS, the “final HPLC purity” value (Method A, 220 nm) is reported as 98% and the “final HPLC purity” value (Method B) is reported as 96%.

— patent US11364275B2 (priority 2017, dated 2022)
